This note sets out measurements from the supplement of paper PMC10060354, “Discovery of a small molecule ligand of FRS2 that inhibits invasion and tumor growth” (Cellular Oncology, 2022).

Protein sequences, listed by entry. Tags and fused reporters are not part of them. Lines headed by an entry give the natural chain unless they say otherwise; changes in a name come on top.
UniProt Q8WUM0: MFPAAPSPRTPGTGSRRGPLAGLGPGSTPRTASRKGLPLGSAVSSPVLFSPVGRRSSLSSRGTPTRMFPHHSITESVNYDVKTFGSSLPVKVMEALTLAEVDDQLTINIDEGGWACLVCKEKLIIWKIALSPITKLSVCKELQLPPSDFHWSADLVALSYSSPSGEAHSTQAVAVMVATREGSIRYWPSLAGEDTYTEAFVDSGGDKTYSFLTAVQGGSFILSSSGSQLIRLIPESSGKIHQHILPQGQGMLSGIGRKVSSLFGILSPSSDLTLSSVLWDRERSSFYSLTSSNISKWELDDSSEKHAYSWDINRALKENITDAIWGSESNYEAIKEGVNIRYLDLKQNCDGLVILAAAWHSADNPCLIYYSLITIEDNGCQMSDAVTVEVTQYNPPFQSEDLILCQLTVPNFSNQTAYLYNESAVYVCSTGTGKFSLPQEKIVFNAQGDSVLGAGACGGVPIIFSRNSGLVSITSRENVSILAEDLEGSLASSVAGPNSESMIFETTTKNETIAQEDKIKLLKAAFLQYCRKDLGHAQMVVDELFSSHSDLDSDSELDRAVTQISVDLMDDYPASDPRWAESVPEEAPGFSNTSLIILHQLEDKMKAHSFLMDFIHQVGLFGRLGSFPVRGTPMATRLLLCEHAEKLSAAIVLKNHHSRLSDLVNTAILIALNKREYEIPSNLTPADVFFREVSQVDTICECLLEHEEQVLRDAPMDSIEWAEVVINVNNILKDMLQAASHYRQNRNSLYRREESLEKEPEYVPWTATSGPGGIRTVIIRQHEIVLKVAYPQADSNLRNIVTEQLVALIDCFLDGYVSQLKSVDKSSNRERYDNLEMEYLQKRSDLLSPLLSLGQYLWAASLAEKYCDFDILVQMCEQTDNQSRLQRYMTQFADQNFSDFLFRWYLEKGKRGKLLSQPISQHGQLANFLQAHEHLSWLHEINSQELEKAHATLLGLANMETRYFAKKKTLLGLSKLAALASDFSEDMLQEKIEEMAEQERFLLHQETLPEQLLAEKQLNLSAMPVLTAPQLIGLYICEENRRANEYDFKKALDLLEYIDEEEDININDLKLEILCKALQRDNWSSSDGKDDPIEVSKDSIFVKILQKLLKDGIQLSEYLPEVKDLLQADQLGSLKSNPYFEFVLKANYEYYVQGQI
UniProt Q8N5C7: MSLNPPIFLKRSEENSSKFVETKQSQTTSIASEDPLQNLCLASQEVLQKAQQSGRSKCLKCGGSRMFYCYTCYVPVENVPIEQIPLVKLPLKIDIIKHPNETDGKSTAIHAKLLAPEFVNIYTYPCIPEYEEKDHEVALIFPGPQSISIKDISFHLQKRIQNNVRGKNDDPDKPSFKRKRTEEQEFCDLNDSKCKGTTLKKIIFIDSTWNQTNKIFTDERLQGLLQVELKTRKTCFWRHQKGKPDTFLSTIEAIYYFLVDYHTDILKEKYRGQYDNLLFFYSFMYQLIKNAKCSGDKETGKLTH
UniProt Q9HA65: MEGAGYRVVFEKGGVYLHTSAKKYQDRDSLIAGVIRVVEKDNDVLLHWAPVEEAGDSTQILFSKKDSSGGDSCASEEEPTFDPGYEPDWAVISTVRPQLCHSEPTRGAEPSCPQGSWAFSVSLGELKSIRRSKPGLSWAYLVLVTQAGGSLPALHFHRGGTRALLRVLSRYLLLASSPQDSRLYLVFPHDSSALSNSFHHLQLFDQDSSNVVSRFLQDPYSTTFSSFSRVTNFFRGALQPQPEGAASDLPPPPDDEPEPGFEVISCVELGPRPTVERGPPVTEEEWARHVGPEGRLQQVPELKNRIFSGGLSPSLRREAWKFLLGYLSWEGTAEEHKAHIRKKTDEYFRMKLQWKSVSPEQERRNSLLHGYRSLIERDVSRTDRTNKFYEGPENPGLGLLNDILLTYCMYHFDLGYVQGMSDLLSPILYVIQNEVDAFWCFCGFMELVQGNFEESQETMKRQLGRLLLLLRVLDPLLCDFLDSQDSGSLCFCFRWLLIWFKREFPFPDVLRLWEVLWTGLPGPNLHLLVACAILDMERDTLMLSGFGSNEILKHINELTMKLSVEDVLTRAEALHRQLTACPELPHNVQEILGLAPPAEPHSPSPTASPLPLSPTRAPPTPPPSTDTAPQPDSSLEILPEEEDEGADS
UniProt Q86VD1: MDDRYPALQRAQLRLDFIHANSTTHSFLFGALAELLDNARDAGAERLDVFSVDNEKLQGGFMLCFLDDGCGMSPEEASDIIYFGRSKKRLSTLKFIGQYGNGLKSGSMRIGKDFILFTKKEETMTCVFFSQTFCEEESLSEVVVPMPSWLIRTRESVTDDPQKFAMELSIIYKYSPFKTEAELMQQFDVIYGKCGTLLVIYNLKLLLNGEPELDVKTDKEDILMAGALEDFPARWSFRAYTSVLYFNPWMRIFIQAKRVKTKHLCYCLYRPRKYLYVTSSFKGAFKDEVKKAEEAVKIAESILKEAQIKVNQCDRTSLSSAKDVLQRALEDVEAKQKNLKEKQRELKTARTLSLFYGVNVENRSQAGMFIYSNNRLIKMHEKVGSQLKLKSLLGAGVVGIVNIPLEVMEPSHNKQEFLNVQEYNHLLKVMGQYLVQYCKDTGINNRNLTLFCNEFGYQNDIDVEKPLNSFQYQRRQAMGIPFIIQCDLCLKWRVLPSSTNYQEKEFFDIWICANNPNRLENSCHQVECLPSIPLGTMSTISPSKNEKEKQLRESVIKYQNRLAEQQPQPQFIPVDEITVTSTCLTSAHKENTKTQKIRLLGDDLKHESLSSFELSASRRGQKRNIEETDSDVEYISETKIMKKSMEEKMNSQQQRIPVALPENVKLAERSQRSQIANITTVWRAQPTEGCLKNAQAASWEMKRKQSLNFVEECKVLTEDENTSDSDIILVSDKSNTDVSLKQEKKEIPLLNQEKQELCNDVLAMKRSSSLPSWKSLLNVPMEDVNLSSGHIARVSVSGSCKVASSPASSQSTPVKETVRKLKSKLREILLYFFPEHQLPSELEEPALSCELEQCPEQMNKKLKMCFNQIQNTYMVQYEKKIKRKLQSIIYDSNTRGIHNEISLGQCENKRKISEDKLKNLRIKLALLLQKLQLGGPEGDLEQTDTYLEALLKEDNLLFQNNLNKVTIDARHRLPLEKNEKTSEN
UniProt Q15392: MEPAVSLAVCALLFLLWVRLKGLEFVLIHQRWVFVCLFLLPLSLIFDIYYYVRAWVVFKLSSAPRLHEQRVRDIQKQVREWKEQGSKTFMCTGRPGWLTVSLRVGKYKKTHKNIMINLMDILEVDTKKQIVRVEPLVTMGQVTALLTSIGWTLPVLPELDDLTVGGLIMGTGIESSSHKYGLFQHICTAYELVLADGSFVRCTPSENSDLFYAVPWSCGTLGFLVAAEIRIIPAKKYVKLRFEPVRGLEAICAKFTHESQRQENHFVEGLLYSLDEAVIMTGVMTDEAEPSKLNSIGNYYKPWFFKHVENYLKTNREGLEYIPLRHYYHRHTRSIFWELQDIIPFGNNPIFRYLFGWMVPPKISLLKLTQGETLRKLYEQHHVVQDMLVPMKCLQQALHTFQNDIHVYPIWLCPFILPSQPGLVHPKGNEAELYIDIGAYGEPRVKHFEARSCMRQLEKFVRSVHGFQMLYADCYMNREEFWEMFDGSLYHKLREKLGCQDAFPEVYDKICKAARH
UniProt Q9BQL6: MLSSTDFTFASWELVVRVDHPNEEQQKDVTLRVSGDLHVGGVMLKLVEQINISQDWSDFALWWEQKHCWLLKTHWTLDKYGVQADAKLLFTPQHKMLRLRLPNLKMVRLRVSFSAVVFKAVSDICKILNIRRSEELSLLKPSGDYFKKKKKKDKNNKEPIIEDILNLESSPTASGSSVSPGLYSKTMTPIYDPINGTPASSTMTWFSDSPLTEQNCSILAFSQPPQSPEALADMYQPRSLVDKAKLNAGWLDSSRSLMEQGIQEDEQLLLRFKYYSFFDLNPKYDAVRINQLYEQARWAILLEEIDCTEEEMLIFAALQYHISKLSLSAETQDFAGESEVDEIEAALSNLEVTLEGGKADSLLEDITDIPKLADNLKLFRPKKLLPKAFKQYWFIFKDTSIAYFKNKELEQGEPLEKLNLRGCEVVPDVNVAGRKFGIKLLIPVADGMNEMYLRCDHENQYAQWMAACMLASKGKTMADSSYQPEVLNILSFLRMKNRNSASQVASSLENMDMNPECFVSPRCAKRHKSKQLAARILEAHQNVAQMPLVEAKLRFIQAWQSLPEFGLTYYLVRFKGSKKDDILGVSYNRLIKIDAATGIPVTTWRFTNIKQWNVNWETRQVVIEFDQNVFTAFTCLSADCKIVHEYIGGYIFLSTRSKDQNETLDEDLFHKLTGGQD
UniProt O95340: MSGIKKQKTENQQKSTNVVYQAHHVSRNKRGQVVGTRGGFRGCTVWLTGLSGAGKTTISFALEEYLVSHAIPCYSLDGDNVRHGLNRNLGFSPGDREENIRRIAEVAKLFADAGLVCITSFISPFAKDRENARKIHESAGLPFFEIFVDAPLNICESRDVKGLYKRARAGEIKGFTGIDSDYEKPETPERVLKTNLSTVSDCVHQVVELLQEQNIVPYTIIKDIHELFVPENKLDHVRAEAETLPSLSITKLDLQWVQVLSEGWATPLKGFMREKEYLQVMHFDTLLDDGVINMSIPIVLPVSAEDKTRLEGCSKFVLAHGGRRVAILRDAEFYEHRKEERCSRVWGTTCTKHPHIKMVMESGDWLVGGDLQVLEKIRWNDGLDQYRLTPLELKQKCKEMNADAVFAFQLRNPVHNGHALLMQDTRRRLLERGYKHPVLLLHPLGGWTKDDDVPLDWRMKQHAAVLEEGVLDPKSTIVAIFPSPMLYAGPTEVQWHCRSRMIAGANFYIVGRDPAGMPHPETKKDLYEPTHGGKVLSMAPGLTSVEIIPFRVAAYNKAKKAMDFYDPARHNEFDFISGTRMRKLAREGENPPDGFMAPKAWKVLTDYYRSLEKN
UniProt Q9P2K8: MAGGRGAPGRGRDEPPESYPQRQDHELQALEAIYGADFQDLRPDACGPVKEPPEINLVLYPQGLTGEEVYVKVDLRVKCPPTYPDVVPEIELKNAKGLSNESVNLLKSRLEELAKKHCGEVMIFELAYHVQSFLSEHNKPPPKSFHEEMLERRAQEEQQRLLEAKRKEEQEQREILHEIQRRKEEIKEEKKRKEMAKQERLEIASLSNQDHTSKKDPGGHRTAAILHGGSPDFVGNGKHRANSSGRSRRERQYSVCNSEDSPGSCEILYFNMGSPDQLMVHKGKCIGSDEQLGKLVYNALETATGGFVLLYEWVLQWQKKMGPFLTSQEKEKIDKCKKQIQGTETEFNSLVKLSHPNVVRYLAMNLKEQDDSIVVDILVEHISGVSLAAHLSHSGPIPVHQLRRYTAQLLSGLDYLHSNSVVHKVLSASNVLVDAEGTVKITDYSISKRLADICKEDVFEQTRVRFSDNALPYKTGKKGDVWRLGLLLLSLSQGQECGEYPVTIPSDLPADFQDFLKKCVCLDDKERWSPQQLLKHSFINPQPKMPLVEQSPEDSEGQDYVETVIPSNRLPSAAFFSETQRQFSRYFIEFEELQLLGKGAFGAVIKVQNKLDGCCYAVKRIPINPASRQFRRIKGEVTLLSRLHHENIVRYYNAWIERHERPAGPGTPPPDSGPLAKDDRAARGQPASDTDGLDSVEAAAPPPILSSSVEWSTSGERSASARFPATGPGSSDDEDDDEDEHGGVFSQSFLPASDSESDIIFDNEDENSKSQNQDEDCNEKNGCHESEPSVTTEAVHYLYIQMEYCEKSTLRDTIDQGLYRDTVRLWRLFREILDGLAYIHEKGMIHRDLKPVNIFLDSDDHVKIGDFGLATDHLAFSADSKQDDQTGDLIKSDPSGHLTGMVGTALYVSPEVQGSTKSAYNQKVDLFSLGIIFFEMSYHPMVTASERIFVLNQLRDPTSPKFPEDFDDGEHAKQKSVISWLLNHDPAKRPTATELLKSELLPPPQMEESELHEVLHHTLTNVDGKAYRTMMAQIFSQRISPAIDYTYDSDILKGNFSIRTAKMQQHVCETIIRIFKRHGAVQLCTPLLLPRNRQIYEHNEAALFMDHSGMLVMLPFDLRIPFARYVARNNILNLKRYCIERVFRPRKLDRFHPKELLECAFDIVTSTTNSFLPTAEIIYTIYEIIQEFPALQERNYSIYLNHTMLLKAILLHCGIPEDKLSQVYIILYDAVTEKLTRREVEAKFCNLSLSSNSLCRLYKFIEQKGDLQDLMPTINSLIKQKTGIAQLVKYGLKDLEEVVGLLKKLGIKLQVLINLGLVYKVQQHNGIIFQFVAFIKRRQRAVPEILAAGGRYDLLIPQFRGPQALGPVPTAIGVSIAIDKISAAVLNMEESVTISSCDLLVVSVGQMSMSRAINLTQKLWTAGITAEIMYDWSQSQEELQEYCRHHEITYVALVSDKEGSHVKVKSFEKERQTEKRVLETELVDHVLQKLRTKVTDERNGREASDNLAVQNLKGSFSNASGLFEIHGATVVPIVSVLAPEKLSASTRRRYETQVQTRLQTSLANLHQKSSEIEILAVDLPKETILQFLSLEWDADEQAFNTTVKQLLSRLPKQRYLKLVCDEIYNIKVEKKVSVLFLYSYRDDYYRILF

Many values rest on one well or one pass, so single values are uncertain.

Compound in this experiment: [O-][N+](C(C1=C(C(O)=C2)NC(C(C=C3)=CC=C3Cl)C4C1C=CC4)=C2Cl)=O
As to the kind of experiment: melting temperature shift (compound 7 minus DMSO); higher = compound stabilises the protein. The following applies: 10 µM. The method, then: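 Thermal proteome profiling (TMT mass spectrometry) in intact DAOY medulloblastoma cells or DAOY lysates treated with 10 µM compound 7 or DMSO, heated at 10 temperatures from 40.5 to 73.8 °C for 3 min. Melting curves were fitted with the Bioconductor TPP package, and the melting point difference between compound and vehicle is reported per protein (single curve per condition).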

The mark [1] stands for this setting: system: DAOY cell lysate, treatment time: 20 min, 4 °C.
The mark [2] stands for this setting: system: intact DAOY cells, treatment time: 90 min, 37 °C.

As to FLOT1 (UniProt O75955), the melting temperature shift by setting is: under setting [1], 0.415 °C; under setting [2], 0.843 °C.

Take NUP133 (UniProt Q8WUM0): the melting temperature shift is, setting by setting: under setting [1], 0.16 °C; under setting [2], -0.212 °C.

Consider CHD4 (UniProt Q14839), for which the melting temperature shift by setting is: under setting [1], 0.114 °C; under setting [2], -0.579 °C.

Take PHF5A (UniProt Q7RTV0): under setting [1], the melting temperature shift turned out to be 0.447 °C.

HIST1H1B (UniProt P16401): the melting temperature shift under setting [1] is 1.42 °C and the melting temperature shift under setting [2] was -1.27 °C.

For UniProt P36507, the melting temperature shift by setting is: under setting [1], -0.464 °C; under setting [2], -1.32 °C.

As to PTPN11 (UniProt Q06124), the melting temperature shift is -0.19 °C under setting [1] and 0.147 °C under setting [2].

In the case of LTA4H (UniProt P09960), the melting temperature shift under setting [1] was -0.37 °C and the melting temperature shift under setting [2] worked out at 0.00347 °C.

As for GLOD4 (UniProt Q9HC38), the melting temperature shift under setting [1] was 0.0191 °C and the melting temperature shift under setting [2] worked out at 0.463 °C.

As to EML2 (UniProt O95834), the melting temperature shift was -0.248 °C under setting [1] and 0.504 °C under setting [2].

As to PTTG1 (UniProt O95997), the melting temperature shift under setting [1] is -3.2 °C.

As for UniProt Q9BXX2, the melting temperature shift under setting [2] is -0.753 °C.

Turning to UniProt Q16739, under setting [2], the melting temperature shift is 0.352 °C.

For the target CDC5L (UniProt Q99459), the melting temperature shift is 0.492 °C under setting [1] and -0.388 °C under setting [2].

On to UniProt P04637, for which the melting temperature shift is -1.73 °C under setting [1] and 3.43 °C under setting [2].

As for CRTAP (UniProt O75718), the melting temperature shift under setting [1] worked out at 1.21 °C and the melting temperature shift under setting [2] was found to be 0.944 °C.

In the case of COL12A1 (UniProt Q99715), the melting temperature shift by setting is: under setting [1], -0.769 °C; under setting [2], -0.61 °C.

As for UniProt O14957, under setting [1], the melting temperature shift is 1.61 °C.

In the case of RAB1B (UniProt Q9H0U4), the melting temperature shift under setting [1] worked out at 1.2 °C and the melting temperature shift under setting [2] was -0.766 °C.

Take MCTS1 (UniProt Q9ULC4): the melting temperature shift is, setting by setting: under setting [1], 0.116 °C; under setting [2], 1.22 °C.

On to DTWD1 (UniProt Q8N5C7), for which, under setting [1], the melting temperature shift was 0.204 °C.

As for UniProt A6NEN9, under setting [1], the melting temperature shift was -4.51 °C.

Regarding DNA2 (UniProt P51530), under setting [1], the melting temperature shift came out at 0.0919 °C.

As for METAP1 (UniProt P53582), the melting temperature shift by setting is: under setting [1], -0.761 °C; under setting [2], -3.1 °C.

Consider TMX3 (UniProt Q96JJ7), for which the melting temperature shift is 1.49 °C under setting [1] and -0.00202 °C under setting [2].

Take PTBP2 (UniProt Q9UKA9): the melting temperature shift under setting [2] is -0.791 °C.

In the case of TBC1D17 (UniProt Q9HA65), the melting temperature shift under setting [1] is -0.447 °C.

Turning to PHACTR2 (UniProt O75167), the melting temperature shift under setting [1] is 1.17 °C.

As for TTC1 (UniProt Q99614), the melting temperature shift under setting [1] was -3.41 °C.

Consider GDE1 (UniProt Q9NZC3), for which the melting temperature shift reads like this: under setting [1], 0.815 °C; under setting [2], 3.6 °C.

Regarding S100A10 (UniProt P60903), the melting temperature shift under setting [1] was 0.906 °C and the melting temperature shift under setting [2] is -1.14 °C.

As for NT5C (UniProt Q8TCD5), the melting temperature shift by setting is: under setting [1], -3.05 °C; under setting [2], -1.65 °C.

UniProt Q86VD1: the melting temperature shift under setting [2] was -2.01 °C.

For the target PAFAH1B2 (UniProt P68402), the melting temperature shift came out at 0.177 °C under setting [1] and 0.123 °C under setting [2].

With UniProt P20648, the melting temperature shift under setting [2] is -0.865 °C.

Turning to RABEP1 (UniProt Q15276), the melting temperature shift was -0.682 °C under setting [1] and 0.832 °C under setting [2].

Regarding MICU1 (UniProt Q9BPX6), the melting temperature shift is 2.3 °C under setting [1] and -1.03 °C under setting [2].

As for IKBIP (UniProt Q70UQ0), the melting temperature shift stood at 0.822 °C under setting [1] and 0.919 °C under setting [2].

Turning to ZNF668 (UniProt Q96K58), under setting [1], the melting temperature shift amounted to 3.6 °C.

Turning to UniProt Q16513, the melting temperature shift under setting [1] is -0.393 °C and the melting temperature shift under setting [2] amounted to 0.0276 °C.

In the case of CTBP2 (UniProt P56545), the melting temperature shift by setting is: under setting [1], -1.62 °C; under setting [2], 0.874 °C.

On to PTS (UniProt Q03393), for which the melting temperature shift by setting is: under setting [1], -0.959 °C; under setting [2], -1.95 °C.

For the target RRS1 (UniProt Q15050), the melting temperature shift by setting is: under setting [1], 0.565 °C; under setting [2], 0.553 °C.

Regarding DHCR24 (UniProt Q15392), the melting temperature shift under setting [1] is -0.261 °C.

Consider TYW3 (UniProt Q6IPR3), for which the melting temperature shift under setting [1] is -1.52 °C.

UniProt Q9HAP6: the melting temperature shift under setting [2] came to 0.185 °C.

Take UniProt Q8TCD1: the melting temperature shift under setting [1] is -3.22 °C.

FERMT1 (UniProt Q9BQL6): the melting temperature shift was -2.21 °C under setting [1] and -0.371 °C under setting [2].

With ETS1 (UniProt P14921), the melting temperature shift under setting [1] was -1.76 °C and the melting temperature shift under setting [2] is -3.78 °C.

Take TMEM41A (UniProt Q96HV5): the melting temperature shift under setting [1] is -0.0395 °C.

With COQ3 (UniProt Q9NZJ6), the melting temperature shift by setting is: under setting [1], 0.749 °C; under setting [2], -0.348 °C.

In the case of IGSF3 (UniProt O75054), under setting [2], the melting temperature shift is -0.0448 °C.

As for PNKP (UniProt Q96T60), the melting temperature shift by setting is: under setting [1], 0.281 °C; under setting [2], 1.36 °C.

For the target LSM14B (UniProt Q9BX40), the melting temperature shift by setting is: under setting [1], 0.555 °C; under setting [2], -0.3 °C.

Take CLIC4 (UniProt Q9Y696): the melting temperature shift under setting [1] is -0.235 °C and the melting temperature shift under setting [2] is 0.0554 °C.

In the case of ITGA3 (UniProt P26006), the melting temperature shift under setting [1] was 2.97 °C.

As for PPM1G (UniProt O15355), the melting temperature shift reads like this: under setting [1], -0.88 °C; under setting [2], 1.34 °C.

For ADPRHL2 (UniProt Q9NX46), the melting temperature shift reads like this: under setting [1], 0.588 °C; under setting [2], 0.241 °C.

Regarding UniProt Q9BVR0, the melting temperature shift under setting [2] worked out at 2.56 °C.

Take EFEMP1 (UniProt Q12805): the melting temperature shift is, setting by setting: under setting [1], 1.15 °C; under setting [2], -0.732 °C.

Consider SART1 (UniProt O43290), for which the melting temperature shift under setting [1] was -0.242 °C and the melting temperature shift under setting [2] was found to be 0.0597 °C.

NOMO1 (UniProt Q15155): the melting temperature shift is 0.551 °C under setting [1] and -0.175 °C under setting [2].

Take UniProt Q9P0W8: the melting temperature shift under setting [2] was 0.265 °C.

Regarding ITCH (UniProt Q96J02), the melting temperature shift by setting is: under setting [1], 0.271 °C; under setting [2], 0.751 °C.

For the target TP53BP1 (UniProt Q12888), the melting temperature shift runs as follows: under setting [1], -0.625 °C; under setting [2], 0.655 °C.

As to UniProt Q15582, the melting temperature shift under setting [1] is 0.87 °C and the melting temperature shift under setting [2] came out at 0.833 °C.

As to RPS4X (UniProt P62701), the melting temperature shift by setting is: under setting [1], 0.371 °C; under setting [2], -0.758 °C.

Take UniProt Q14141: the melting temperature shift under setting [1] was -0.167 °C and the melting temperature shift under setting [2] is -0.263 °C.

Turning to CKAP4 (UniProt Q07065), the melting temperature shift is, setting by setting: under setting [1], 1.51 °C; under setting [2], 1.09 °C.

In the case of UniProt Q9UKI9, the melting temperature shift under setting [2] was -0.964 °C.

For SIGMAR1 (UniProt Q99720), the melting temperature shift under setting [1] stood at 3.32 °C.

Consider UniProt P55085, for which the melting temperature shift under setting [1] was -1.2 °C.

BSDC1 (UniProt Q9NW68): the melting temperature shift reads like this: under setting [1], 2.42 °C; under setting [2], 0.356 °C.

Consider CCDC90B (UniProt Q9GZT6), for which the melting temperature shift under setting [1] is 1.99 °C and the melting temperature shift under setting [2] was -0.527 °C.

For the target LMNB2 (UniProt Q03252), the melting temperature shift under setting [2] is 2.17 °C.

For SF3B2 (UniProt Q13435), the melting temperature shift is, setting by setting: under setting [1], -0.417 °C; under setting [2], -0.278 °C.

With UniProt O95070, the melting temperature shift under setting [2] is -1.23 °C.

As to MED17 (UniProt Q9NVC6), the melting temperature shift reads like this: under setting [1], 0.334 °C; under setting [2], 1.04 °C.

Consider PAPSS2 (UniProt O95340), for which the melting temperature shift is 0.151 °C under setting [1] and -0.44 °C under setting [2].

With CFAP36 (UniProt Q96G28), under setting [1], the melting temperature shift was -0.967 °C.

In the case of UniProt P08476, the melting temperature shift runs as follows: under setting [1], 0.149 °C; under setting [2], -0.253 °C.

For the target ANP32B (UniProt Q92688), the melting temperature shift by setting is: under setting [1], -0.318 °C; under setting [2], 0.277 °C.

For NR2C2AP (UniProt Q86WQ0), under setting [1], the melting temperature shift is 0.355 °C.

Turning to C2CD2 (UniProt Q9Y426), under setting [2], the melting temperature shift turned out to be 2.66 °C.

Take EIF2AK4 (UniProt Q9P2K8): the melting temperature shift is 0.207 °C under setting [1] and -0.297 °C under setting [2].

As to TBL3 (UniProt Q12788), the melting temperature shift under setting [1] worked out at 0.996 °C.

For the target ZNF609 (UniProt O15014), the melting temperature shift under setting [1] turned out to be 0.599 °C.

Regarding DXO (UniProt O77932), the melting temperature shift under setting [2] turned out to be 0.663 °C.

On to NDUFA5 (UniProt Q16718), for which the melting temperature shift is 1.21 °C under setting [1] and 0.686 °C under setting [2].

For the target NUDT16 (UniProt Q96DE0), the melting temperature shift is, setting by setting: under setting [1], 0.145 °C; under setting [2], -1.68 °C.

For UniProt Q8TDZ2, the melting temperature shift is, setting by setting: under setting [1], 0.545 °C; under setting [2], -0.357 °C.

Take NUP188 (UniProt Q5SRE5): the melting temperature shift reads like this: under setting [1], -0.244 °C; under setting [2], -1.02 °C.
